Binding data for one molecule are collected here from article PMC4873810.

The target in test [1] is T1, glypican 6 (Gpc6) HSPG, HA-tagged (UniProt Q9Y625).
T1 sequence (chain, heparan sulfate chains (HSPG)): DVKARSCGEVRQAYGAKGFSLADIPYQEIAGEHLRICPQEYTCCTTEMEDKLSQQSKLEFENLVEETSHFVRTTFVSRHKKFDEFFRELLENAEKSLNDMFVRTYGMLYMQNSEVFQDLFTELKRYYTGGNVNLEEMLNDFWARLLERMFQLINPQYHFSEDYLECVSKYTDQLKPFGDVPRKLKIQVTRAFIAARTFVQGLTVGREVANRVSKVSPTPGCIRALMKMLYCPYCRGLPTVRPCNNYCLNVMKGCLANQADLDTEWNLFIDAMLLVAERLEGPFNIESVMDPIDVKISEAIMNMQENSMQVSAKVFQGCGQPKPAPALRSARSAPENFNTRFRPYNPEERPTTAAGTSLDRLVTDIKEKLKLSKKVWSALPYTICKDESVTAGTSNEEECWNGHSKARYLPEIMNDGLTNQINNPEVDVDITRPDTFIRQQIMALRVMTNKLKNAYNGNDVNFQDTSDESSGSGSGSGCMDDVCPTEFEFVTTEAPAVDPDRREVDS
The test can be described thus: proximity ligation; Duolink in situ PLA on transfected Bosc23 cells (for Scube2/Gpc6 also HeLa and MiaPaca2), fixed in 4% PFA, non-permeabilised; primary antibodies α-FLAG (Scube2), α-HA (Gpc6), α-Shh; 40 nm upper limit.

Test [2] deals with T1, glypican 6 (Gpc6) HSPG, HA-tagged. The test can be described thus: proximity ligation; Duolink in situ PLA on transfected Capan1, B16F10 and Panc1 cells, fixed in 4% PFA, non-permeabilised; primary antibodies α-FLAG (Scube2) and α-HA (Gpc6).
Test [3] shares this target. The description is as above. The source holds these as a separate data set.

No constants are given. Whether binding was seen depends on the method and setting. Binding seen in cells or lysates may run through a third protein. Some results given as binding are weak or reduced against the parent protein; the word gives no strength. Tags and fused reporters may be left off the sequences shown.

B1: Scube2 (signal peptide, CUB domain, epidermal growth factor (EGF)-like protein 2), full-length, FLAG-tagged (protein, UniProt Q9NQ36 32-999)
chain: VPPGRGRAAGPQEDVDECAQGLDDCHADALCQNTPTSYKCSCKPGYQGEGRQCEDIDECGNELNGGCVHDCLNIPGNYRCTCFDGFMLAHDGHNCLDVDECLENNGGCQHTCVNVMGSYECCCKEGFFLSDNQHTCIHRSEEGLSCMNKDHGCSHICKEAPRGSVACECRPGFELAKNQRDCILTCNHGNGGCQHSCDDTADGPECSCHPQYKMHTDGRSCLEREDTVLEVTESNTTSVVDGDKRVKRRLLMETCAVNNGGCDRTCKDTSTGVHCSCPVGFTLQLDGKTCKDIDECQTRNGGCDHFCKNIVGSFDCGCKKGFKLLTDEKSCQDVDECSLDRTCDHSCINHPGTFACACNRGYTLYGFTHCGDTNECSINNGGCQQVCVNTVGSYECQCHPGYKLHWNKKDCVEVKGLLPTSVSPRVSLHCGKSGGGDGCFLRCHSGIHLSSDVTTIRTSVTFKLNEGKCSLKNAELFPEGLRPALPEKHSSVKESFRYVNLTCSSGKQVPGAPGRPSTPKEMFITVEFELETNQKEVTASCDLSCIVKRTEKRLRKAIRTLRKAVHREQFHLQLSGMNLDVAKKPPRTSERQAESCGVGQGHAENQCVSCRAGTYYDGARERCILCPNGTFQNEEGQMTCEPCPRPGNSGALKTPEAWNMSECGGLCQPGEYSADGFAPCQLCALGTFQPEAGRTSCFPCGGGLATKHQGATSFQDCETRVQCSPGHFYNTTTHRCIRCPVGTYQPEFGKNNCVSCPGNTTTDFDGSTNITQCKNRRCGGELGDFTGYIESPNYPGNYPANTECTWTINPPPKRRILIVVPEIFLPIEDDCGDYLVMRKTSSSNSVTTYETCQTYERPIAFTSRSKKLWIQFKSNEGNSARGFQVPYVTYDEDYQELIEDIVRDGRLYASENHQEILKDKKLIKALFDVLAHPQNYFKYTAQESREMFPRSFIRLLRSKVSRFLRPYK
Regarding B1, the binding entry was “binds” in test [1]; “binds weakly” in test [2]; “no binding (condition: in Capan1, B16F10 and Panc1 cells)” in test [3].
